# The supplement of paper PMC3334620
# Over roughly 33,000 sequences, “E-score (-0.5 to 0.5)” has its median near -8e-05; the highest 2% begin near 0.23. Some of the results follow.
# Target: T1, Nrg2 (UniProt P38082)
# T1 sequence: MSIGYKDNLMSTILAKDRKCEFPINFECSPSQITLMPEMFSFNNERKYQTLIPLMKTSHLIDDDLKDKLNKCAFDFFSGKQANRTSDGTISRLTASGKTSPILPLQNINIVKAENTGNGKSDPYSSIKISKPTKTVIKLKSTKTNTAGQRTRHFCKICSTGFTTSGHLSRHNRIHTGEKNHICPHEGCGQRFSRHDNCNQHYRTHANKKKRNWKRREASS
# Test: PBM E-score (8-mer binding enrichment) (E-score (-0.5 to 0.5)); higher = stronger / more preferred TF binding
# Conditions: protein concentration: 100 nM; construct: GST-full length
# Outline: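 Bound GST-tagged yeast transcription factors, applied at about 100-200 nM to double-stranded universal all-10-mer Agilent arrays, were detected with fluorescent anti-GST. Scans were normalised with masliner. A modified Wilcoxon-Mann-Whitney statistic, the E-score, was assigned to each ungapped eight-base word pooled with its reverse complement by the Universal PBM Analysis Suite.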
row,Sequence,PBM E-score
1,CAACCAGC,0.0587
2,ATCCCGGA,0.0243
3,ACAGGGGG,-0.213
4,AAATGGAT,0.114
5,CGAGTATC,-0.0715
6,ACGTACCT,-0.262
7,CCTCACGC,0.0353
8,CAATTCAC,0.0554
9,TGAGCACA,-0.019
10,AATTCCGT,0.0895
11,CCCCGACA,-0.124
12,ACGCATGA,0.0145
13,CGGTGCAA,-0.0138
14,ACCAAGTC,0.111
15,CTCACCAG,-0.0488
16,TGCCGCAA,0.123
17,TATGAGAA,0.148
18,AGGAACAT,-0.0445
19,AGAAACTA,-0.121
20,CTCAGCTA,-0.144
21,GATCAATA,0.181
22,ATAATTCG,0.109
23,CAAGTAGC,0.0513
24,CGTCCACG,-0.157
25,AGCTTTTA,0.0375

row,Sequence,PBM E-score
1,CGGGCTAC,-0.0936
2,CTAACTGA,-0.00324
3,TGTACTAA,-0.0646
4,GCGACGCA,-0.123
5,GCGTGGAC,-0.213
6,CGTGTCTA,0.0309
7,ACCATGGA,-0.172
8,ACGCGAAC,-0.0106
9,GTGGTCAA,0.00864
10,GAAATACA,-0.0218
11,CGAGATAC,0.163
12,AGTGGGCA,-0.00862
13,AGTCCACC,0.0447
14,CTCTGGGA,-0.237
15,AAGAAGAG,0.0586
16,ACGGGTCC,0.167
17,ACAACTGG,0.163
18,TTCTAGAA,-0.227
19,ACATCTCA,0.0805
20,ATTACCAG,0.0678
21,ATAAGACG,-0.124
22,TATCCTGA,0.202
23,ACCGCGCG,0.301
24,CGTGACTC,-0.263
25,ATCAAAAA,0.237

# In a second layout: results already given
row | Sequence | PBM E-score
1 | CGGGCTAC | -0.0936
9 | GTGGTCAA | 0.00864
14 | CTCTGGGA | -0.237
19 | ACATCTCA | 0.0805
20 | ATTACCAG | 0.0678

# Continued.

row,Sequence,PBM E-score
1,GATATCCA,0.166
2,CGTCACAC,-0.0186
3,CAGCAGGG,0.0602
4,CCCTCCAC,-0.11
5,AACATTAG,-0.129
6,TACAAAAA,0.0653
7,GCACAGGC,-0.0223
8,CAGACGGC,-0.16
9,AGCAGGCG,-0.0267
10,CGGGCCGC,-0.0506
11,GACGTTGA,0.1
12,ATACCGGC,-0.0758
13,CTGTTTAA,0.0598
14,AATCGCAA,0.184
15,TAAGCTAA,0.0275
16,AGTACGGG,-0.133
17,CACATCTG,-0.12
18,CTTTCGGC,-0.246
19,CCTTCGTA,-0.0483
20,AAGTAAAC,-0.00204
21,GTCGCCAC,-0.297
22,ATGGATAC,0.0111
23,AAACAAAG,0.135
24,TCTGGTAA,0.0843
25,CCACACCA,0.0946

row,Sequence,PBM E-score
1,GAGAGGCA,-0.0439
2,AGGCACCG,-0.194
3,AGAACTCT,0.00451
4,GTACCGAC,-0.208
5,CGTGGCAA,-0.177
6,TCATTTAA,-0.0144
7,CGATAGTC,-0.0541
8,ACGAGTGC,-0.0866
9,ACTAAACC,-0.0137
10,CCCACCTA,-0.144
11,ATCGGCTA,0.0602
12,TATAACGA,0.0366
13,CAGAATCC,0.0658
14,CCGTTGAA,-0.153
15,CATATAGC,0.00177
16,GCGTAACC,-0.0731
17,CGCCACCA,-0.188
18,ATGGTTAC,-0.0938
19,ACAGTAAA,0.0343
20,AAGGGCAG,-0.0721
21,CGACTTAC,-0.132
22,GGATTGGA,0.0101
23,GGCAATTA,0.103
24,GAGTGACC,-0.0155
25,CTGCAGGA,0.14

row,Sequence,PBM E-score
1,CATACACG,0.0277
2,CCATAAAC,-0.0309
3,GTAAGCGA,0.00506
4,AGGCGGTA,-0.259
5,CGAGCTCA,0.108
6,CAGGTAAG,-0.142
7,AATAGCGT,0.0503
8,GAATGACA,-0.0127
9,TCCGAGAA,-0.0407
10,GGTCCCAC,-0.0409
11,GGGTGGCA,-0.0143
12,CCAGGCGG,0.0432
13,CGACCCGA,-0.0884
14,AAGAATGT,0.107
15,AGACGCGC,0.0845
16,AGGTCGAA,0.145
17,CAGCGAAA,-0.0452
18,AGGACGCC,-0.145
19,CTAATCAA,0.216
20,CGTCTAAC,-0.0775
21,ATTAAGGC,0.0412
22,CACTTTAC,-0.0431
23,GGTTACGA,0.0861
24,ATGGGGTG,-0.013
25,GTGGCCTA,-0.0216

# Reprinted at random: 3 entries already listed
row,Sequence,PBM E-score
16,GCGTAACC,-0.0731
3,AGAACTCT,0.00451
1,CATACACG,0.0277

# (listing goes on)

row,Sequence,PBM E-score
1,CCCTTTCA,-0.033
2,CTCTTCCA,-0.19
3,ACATTATA,0.189
4,GCTAATAC,0.119
5,ATTACAAG,0.0724
6,CACGGGGA,0.0457
7,GACAAGTC,-0.119
8,ATGAATCA,0.172
9,ATAACGGG,-0.124
10,TTGATAAA,0.153
11,CCGTATCA,0.016
12,GATCGGAC,0.031
13,GTTACCCA,-0.202
14,AGGTGGTC,-0.0416
15,ATATGCAC,0.0901
16,ATCGTTGG,-0.0345
17,AAGTATCA,0.122
18,GCGATAGA,0.0735
19,ACCTGAGG,-0.134
20,AAGATTAC,-0.0187
21,GCTACACC,-0.122
22,ACACGCGG,0.0963
23,ATATAGCA,-0.00901
24,CAAACCAA,0.214
25,ACATGTAG,0.2

row,Sequence,PBM E-score
1,GCCTGGAA,0.0438
2,CGCTACCC,-0.0608
3,CAACACTG,0.0542
4,CGGCGATA,-0.103
5,AGTACAAA,0.06
6,CGTTCAGA,-0.192
7,AAACTGCC,0.0123
8,CGATAACA,0.00415
9,ATTGCATA,0.149
10,ATGATGCA,0.132
11,AACACGAG,0.094
12,CCGCAGAG,-0.193
13,AAGCATGG,-0.133
14,ACACAAAT,0.206
15,AGCTAACC,-0.163
16,ACTGATAT,0.0251
17,ATGAGGAG,-0.19
18,AGAAGCCA,0.025
19,ATCGATGC,-0.0258
20,CCCGTCAC,-0.0719
21,GACGATAA,0.0704
22,AGCGGCAT,0.153
